The values below come from PMC7557908.

Amino acid sequences for entries named in this document (tags omitted). A change or cut given only in a name is not applied to a line headed by its entry.
UniProt Q08397: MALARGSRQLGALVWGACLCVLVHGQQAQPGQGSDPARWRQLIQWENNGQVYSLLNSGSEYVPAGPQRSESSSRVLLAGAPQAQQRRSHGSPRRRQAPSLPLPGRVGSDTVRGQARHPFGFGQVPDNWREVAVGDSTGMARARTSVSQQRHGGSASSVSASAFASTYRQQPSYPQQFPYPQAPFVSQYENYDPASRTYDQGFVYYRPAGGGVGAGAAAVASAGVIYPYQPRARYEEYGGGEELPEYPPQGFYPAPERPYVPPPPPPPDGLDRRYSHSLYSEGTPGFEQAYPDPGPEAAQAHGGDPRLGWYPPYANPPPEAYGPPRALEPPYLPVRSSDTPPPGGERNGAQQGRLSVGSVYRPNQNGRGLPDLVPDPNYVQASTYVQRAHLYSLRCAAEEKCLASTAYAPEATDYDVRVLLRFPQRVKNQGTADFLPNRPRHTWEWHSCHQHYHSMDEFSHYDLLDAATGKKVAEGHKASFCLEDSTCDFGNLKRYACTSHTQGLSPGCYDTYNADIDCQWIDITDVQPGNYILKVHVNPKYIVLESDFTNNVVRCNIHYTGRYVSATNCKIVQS

These are yes or no findings as the source states them, for the method shown. Binding seen in cells or lysates may run through a third protein. Binding can be weak; no strength is given. Tags and fused reporters may be left off the sequences shown.

This test addresses GST-LOXL1 full length (FL), wild type (human (LOXL1 cloned from LN18 cDNA)) (UniProt Q08397). In words: pull-down; GST pull-down: GST-LOXL1 constructs incubated with His-BAG2 constructs; called a direct interaction (Fig. 4c, 4d, 4f).

B1: His-BAG2 1 to 108 AAs (1-108) (domain or fragment, UniProt O95816 1-108)
chain: MAQAKINAKANEGRFCRSSSMADRSSRLLESLDQLELRVEALREAATAVEQEKEILLEMIHSIQNSQDMRQISDGEREELNLTANRLMGRTLTVEVSVETIRNPQQQE
B1: the binding result is “binds”.
